Library screening results

Sequences of proteins named here, by UniProt entry; tags and fusion partners are left off.
UniProt E9BF75, entry or part of it: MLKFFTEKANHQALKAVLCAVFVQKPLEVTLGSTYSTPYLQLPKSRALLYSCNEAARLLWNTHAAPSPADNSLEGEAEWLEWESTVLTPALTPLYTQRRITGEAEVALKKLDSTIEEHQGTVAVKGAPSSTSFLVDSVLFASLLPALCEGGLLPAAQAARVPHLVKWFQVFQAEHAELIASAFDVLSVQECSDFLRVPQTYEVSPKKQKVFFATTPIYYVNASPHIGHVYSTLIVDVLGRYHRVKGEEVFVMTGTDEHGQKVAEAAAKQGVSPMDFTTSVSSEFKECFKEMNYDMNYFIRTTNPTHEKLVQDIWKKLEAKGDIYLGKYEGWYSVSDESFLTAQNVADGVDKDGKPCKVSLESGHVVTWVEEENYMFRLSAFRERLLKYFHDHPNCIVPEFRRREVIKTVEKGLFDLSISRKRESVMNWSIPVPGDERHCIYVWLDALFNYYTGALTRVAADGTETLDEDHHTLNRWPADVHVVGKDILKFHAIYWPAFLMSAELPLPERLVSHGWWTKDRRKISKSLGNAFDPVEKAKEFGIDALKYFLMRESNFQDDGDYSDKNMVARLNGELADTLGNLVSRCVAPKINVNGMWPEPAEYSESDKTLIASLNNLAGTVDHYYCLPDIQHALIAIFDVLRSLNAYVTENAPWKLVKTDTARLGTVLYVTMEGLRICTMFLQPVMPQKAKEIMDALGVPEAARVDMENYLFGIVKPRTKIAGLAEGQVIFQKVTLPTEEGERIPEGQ

From ChEMBL document CHEMBL3988442, “University of Dundee, Small-Polar-MMV Screening Library” (2021).

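Primary screen of methionyl-tRNA synthetase; the read-out is not stated. Target: Methionyl-tRNA synthetase (putative), Leishmania donovani (UniProt E9BF75). The test concentration is not given. The values are filed as inhibition. About 68,000 compounds were tested under these conditions; 0.035% (about 24) showed 50% or more at least once.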

Results are percentages, as filed. How 0% and 100% were set is not recorded. Most values in the screen are low, and negative values occur. This is an unselected part of the compounds tested.

| # | Compound | inhibition |
|---|---|---|
| 1 | `COc1cccc(CC(C)NCC(=O)Nc2ccccc2C)c1` (stereo not drawn) | 6.873% |
| 2 | `CO[C@@H]1CCN(Cc2cccc(C)n2)[C@@H]2CN(Cc3ccncc3)C[C@@H]21` | 21.25% |
| 3 | `CN1CCC(CCc2ccnc(Nc3cnccn3)c2)CC1` | 13.65% |
| 4 | `CCNc1ncc(C(=O)NC2CCSC2)cn1` (stereo not drawn) | 0% |
| 5 | `Cn1ncc2c(N3CCN4CCCCC4C3)nc(C3CCCC3)nc21` (stereo not drawn) | 15.95% |
| 6 | `Cc1nc2ccnn2c(C)c1CCC(=O)N1CCC(C(N)=O)CC1` | 10.24% |
| 7 | `N#Cc1cn(C2CC2)c(=O)n(CC(O)c2ccccc2C(F)(F)F)c1=O` (stereo not drawn) | 16.32% |
| 8 | `O=C(NC[C@H]1C[C@@H]2CCN1C[C@@H]2CN1CCCCC1)c1ccco1` | 11.19% |
| 9 | `Cc1cc(C)c2cc(CNCc3ccccc3)c3nn(C)c(=O)n3c2c1` | 14.04% |
| 10 | `Cc1ncc(CNC(CCO)C2CCCCC2)s1` (stereo not drawn) | 5.575% |
| 11 | `CCCS(=O)(=O)NC(=O)c1ccc(-n2nc(C)cc2C)cc1` | 2.507% |
| 12 | `CSCC(C)(O)CNS(=O)(=O)Cc1ccc(F)cc1` (stereo not drawn) | 9.296% |
| 13 | `Cc1ccc(-c2nc(CC(=O)NCC3CCOC3)cs2)o1` (stereo not drawn) | 10.57% |
| 14 | `CCc1cnc(NCCCN2CCC(O)CC2)nc1` | 1.25% |
| 15 | `O=C(CCn1c(C(F)F)cc2cccnc21)NC1CC1` | 17.42% |
| 16 | `Cc1cc(C2CCCN2Cc2nc(-c3ccco3)no2)on1` (stereo not drawn) | 6.211% |
| 17 | `CS(=O)(=O)c1ccc(OCCCN2CCc3cncnc3C2)cc1` | 12.05% |
| 18 | `c1cncc(OC[C@]23COC[C@H]2CN(Cc2ccsc2)C3)c1` | 17.96% |
| 19 | `COc1ccc(C(=O)C2CCCN(Cc3ccccc3O)C2)c(OC)c1` (stereo not drawn) | 3.976% |
| 20 | `CC(C)c1nccn1C1CCCN(C(=O)c2ccn(C)c(=O)c2)C1` (stereo not drawn) | 6.265% |
| 21 | `CC(C)CN1C(=O)CC[C@]12CC[C@@H](NC(=O)NCc1cccnc1)CC2` | 16.1% |
| 22 | `Cc1ccc(C(=O)N2CCC3(CC2)NC(=O)CC3c2ccccc2)cn1` (stereo not drawn) | 10.46% |
| 23 | `CC(C)Cn1cncc1CNC1CCSCC1` | 2.518% |
| 24 | `CCc1nccn1CCC(=O)N1CC(=O)N(c2ccccc2C)CC1C` (stereo not drawn) | 16.49% |
| 25 | `CCc1noc(C)c1C(=O)NCc1ccccn1` | 11.8% |
| 26 | `N#Cc1cc(F)c(NCCc2cccnc2)c(F)c1` | 12.05% |
| 27 | `CC1CCC(O)(CSc2nnnn2C2CC2)CC1` (stereo not drawn) | 5.42% |
| 28 | `Cc1cc(NC(=O)Cn2ncc(SCC(N)=O)c(Cl)c2=O)ccc1Br` | 12.93% |
| 29 | `Cc1c(Cl)cccc1NC(=O)c1nc[nH]n1` | -16.8% |
| 30 | `FC(F)CN1CCC(NCCc2ccc(-n3cccn3)cc2)CC1` | 18.13% |
| 31 | `COC(=O)C(O)C1CCN(CCc2ccc(C)cc2)CC1` (stereo not drawn) | 4.62% |
| 32 | `Nc1nccc(N2C[C@@H](CN3CCCCC3)[C@@H](CO)C2)n1` | 13.84% |
| 33 | `Cc1ccc(CN(C)C(=O)c2cccc(NC(N)=O)c2)o1` | 10% |
| 34 | `CC(C)(C)c1cnc(CN2CCCS2(=O)=O)o1` | 2.799% |
| 35 | `Cc1ccc([C@@H]2CN(C(=O)c3ccsc3)C[C@H]2NC(=O)C2CC2)cc1` | 8.791% |
| 36 | `O=C(c1cncs1)N1CCCC1c1ccn[nH]1` (stereo not drawn) | 7.742% |
| 37 | `O=C(C1CC1)N1CCCC1c1nnc2n1CCCCC2` (stereo not drawn) | 11.72% |
| 38 | `Cc1ccc2c(n1)N(CCN(C)C)CCN(C(=O)c1cccs1)C2` | 16.48% |
| 39 | `Cc1nn(CC(=O)N2CCN(c3ccc(F)cc3)CC2)c(C)c1Cl` | 10.67% |
| 40 | `COC[C@@H]1CCC[C@@]12CN(Cc1ccc(C)s1)CCO2` | 12.97% |
| 41 | `CCN1C(=O)CC(c2cccnc2)C12CCN(c1ncc(F)cn1)CC2` (stereo not drawn) | 13.77% |
| 42 | `c1ccc(C2(NCC3CNc4ccnn4C3)CCC2)cc1` (stereo not drawn) | 17.72% |
| 43 | `CC(=O)NCC1CCN(C(=O)c2c[nH]c3cc(Cl)ccc23)CC1` | 13.17% |
| 44 | `Cc1cc(C)cc(OCCC(=O)N2CCCC(n3cncn3)C2)c1` (stereo not drawn) | 7.302% |
| 45 | `COc1cc(NC2CCCN(c3ncccc3C#N)C2)cc(OC)c1` (stereo not drawn) | 9.524% |
| 46 | `CCc1nc(CN(C)C2CCN(CCc3cccs3)C2)no1` (stereo not drawn) | 19.67% |
| 47 | `O=C(c1ccccn1)N1CCC(Nc2cccnn2)CC1` | 0% |
| 48 | `CCCc1cc(C(=O)NCCCC(=O)N2Cc3ccccc3C2)[nH]n1` | 21.18% |
| 49 | `COCC(=O)N1CCCCC1c1nc(C)c2c(n1)N(C1CC1)C(=O)CC2` (stereo not drawn) | 18.73% |
| 50 | `COCCN1CCCn2cnc(CNC3CCCC3)c2C1` | 25.44% |
| 51 | `O=C(CCc1cccnc1)N1CCCCC1c1ccn2ccnc2n1` (stereo not drawn) | 15.25% |
| 52 | `CN1CCN(C)C2(CCN(C(=O)CC(F)(F)F)CC2)C1=O` | 2.198% |
| 53 | `COc1cccc(CC(=O)N2CCN(c3cccc(C)c3)C(C)C2)c1` (stereo not drawn) | 9.192% |
| 54 | `CCc1nnc2n1CCN(C(=O)c1ccc(-c3ccco3)[nH]c1=O)C2` | 8.169% |
| 55 | `NC(=O)c1cc(C2CCCN(C(=O)CCc3ccccn3)C2)n[nH]1` (stereo not drawn) | 16.48% |
| 56 | `CN(C)c1ccc(C(=O)N2CCC(c3n[nH]c(C4CC4)n3)CC2)cc1` | 7.736% |
| 57 | `O=C(N[C@@H]1CN(CCc2ccc(F)cc2)C[C@H]1O)c1cscn1` | 8.706% |
| 58 | `O=C(CN1CCCCC1Cn1cncn1)NC1CCN(C2CC2)CC1` (stereo not drawn) | 3.261% |
| 59 | `CC(C)Cn1ccc2c(NC(=O)c3n[nH]c4c3CCC4)cccc21` | 18.59% |
| 60 | `O=C1CC2(CCN(Cc3ccccn3)C2)CN1c1cccnc1` (stereo not drawn) | 19.26% |
| 61 | `CC(C)(C)c1nc(CN(Cc2cccs2)C2CCS(=O)(=O)C2)cs1` (stereo not drawn) | 8.564% |
| 62 | `Cc1csc(N2CCCN(C(=O)C3(C#N)CCCCC3)CC2)n1` | 11.22% |
| 63 | `O=C(CCCn1cnnn1)N1CCC(c2ccncc2)CC1` | 11.67% |
| 64 | `CCCC(=O)Nc1ccc2c(c1)C1(CCOCC1)CN2CCOC` | 16.62% |
| 65 | `Cn1cc(Br)c(=O)c(NS(=O)(=O)c2cc(F)ccc2Cl)c1` | -1.087% |
| 66 | `O=C(NCc1cc2ccccc2s1)c1cc(CN2CCCC(O)C2)on1` (stereo not drawn) | -0.7117% |
| 67 | `CN1CCCN(S(=O)(=O)c2cn(C)cn2)c2cc(F)ccc21` | 0.8523% |
| 68 | `Cc1ccc(NC(=O)c2cccc(N(C)C)c2)nc1` | 11.02% |
| 69 | `Cc1ccc(CSc2nc(N)cc(NCC(=O)N3CCNCC3)n2)cc1` | 43.18% |
| 70 | `NC(=O)C(CNC(=O)CCc1ccsc1)Cc1ccc(F)cc1` (stereo not drawn) | 5.634% |
| 71 | `Cn1ccnc1CN1CCOC[C@H]1c1nc(C(C)(C)C)co1` | 14.29% |
| 72 | `COc1ccccc1N1CCC(N2CCOCC(CO)C2)CC1` (stereo not drawn) | 5.852% |
| 73 | `Cc1cc(C)n(CC2CN(CC(=O)N3CCC3)CCO2)n1` (stereo not drawn) | 14.53% |
| 74 | `NC(=O)NCC(=O)N1CCCC(OCc2cccnc2)C1` (stereo not drawn) | 0.8174% |
| 75 | `Cc1nc(NS(=O)(=O)c2ccc(F)c(Br)c2)no1` | 3.727% |
| 76 | `CCc1nnsc1C(=O)N1CCCN(Cc2cnn(C)c2)CC1` | 11.11% |
| 77 | `COc1ccccc1N1CCN(Cc2cnc3c(c2)c(C)nn3C)CC1` | 17.18% |
| 78 | `COC(C)(C)c1noc(C2(C#N)CCCC2)n1` | -0.7246% |
| 79 | `CC(C)c1cc(C(=O)N2CCN(CC3CC3)[C@@H]3CS(=O)(=O)C[C@@H]32)on1` | 6.46% |
| 80 | `Cc1nc(NCCCn2cccn2)c2c(n1)c(C)nn2C` | 0.2513% |
| 81 | `O=C(NCCc1ccsc1)c1ccoc1` | 8.437% |
| 82 | `O=C(NCCc1ccn(-c2ccc(F)cc2)n1)C1CCCO1` (stereo not drawn) | 17.06% |
| 83 | `Cc1cc(C)c(C(=O)N2CCOCC2c2c(C)nn(C)c2C)o1` (stereo not drawn) | 23.3% |
| 84 | `CC(C)(C)C(O)CCNC(=O)c1ccc(F)cc1Cl` (stereo not drawn) | 11.51% |
| 85 | `Cc1cc(C(F)(F)F)nn1CCCNC(=O)C1CCCC1` | 8.924% |
| 86 | `CN(C(=O)c1ccco1)c1nc2c(s1)CCCC2` | 10.78% |
| 87 | `O=C(CCc1nc(C2CC2)no1)c1ccccc1` | 16.06% |
| 88 | `CC(C)(O)CN1CCN(C(=O)c2sccc2C#N)CC1` | 21.49% |
| 89 | `CNc1cnc(CC2COCCN(CCOc3ccccc3)C2)cn1` (stereo not drawn) | 3.492% |
| 90 | `CCn1nc2c(cc1=O)CN(CC(=O)Nc1nnc(C)s1)CC2` | 11.36% |
| 91 | `Cc1cc(C(=O)N(C)Cc2ccn[nH]2)c(NC(=O)C(C)(C)C)s1` | 19.73% |
| 92 | `Cc1ccccc1C1CCCN1Cc1nc2c(cnn2C)c(=O)[nH]1` (stereo not drawn) | 21.23% |
| 93 | `Cc1nn(C)c(=O)c2nn(-c3cccc(Cl)c3)c(C)c12` | 16.62% |
| 94 | `CCn1ccc(-c2cc(C(=O)O)n3ncc(Cl)c3n2)n1` | 13.68% |
| 95 | `COc1ccc(-c2c[nH]c([C@@H]3COCCN3)n2)cc1` | 0% |

Some entries from above, unchanged:

Compound,inhibition
Cc1ccc2c(n1)N(CCN(C)C)CCN(C(=O)c1cccs1)C2,16.48%
CNc1cnc(CC2COCCN(CCOc3ccccc3)C2)cn1 (stereo not drawn),3.492%
CC(C)(C)C(O)CCNC(=O)c1ccc(F)cc1Cl (stereo not drawn),11.51%
CS(=O)(=O)c1ccc(OCCCN2CCc3cncnc3C2)cc1,12.05%
CC(C)Cn1cncc1CNC1CCSCC1,2.518%
CN(C(=O)c1ccco1)c1nc2c(s1)CCCC2,10.78%
Cc1ccc(CSc2nc(N)cc(NCC(=O)N3CCNCC3)n2)cc1,43.18%
O=C(NC[C@H]1C[C@@H]2CCN1C[C@@H]2CN1CCCCC1)c1ccco1,11.19%
O=C(NCCc1ccn(-c2ccc(F)cc2)n1)C1CCCO1 (stereo not drawn),17.06%
CC(C)(O)CN1CCN(C(=O)c2sccc2C#N)CC1,21.49%
FC(F)CN1CCC(NCCc2ccc(-n3cccn3)cc2)CC1,18.13%